Among the data in patent US20120164159A1 (OPSONA THERAPEUTICS, published 2012) are binding values, retold here.

Sequences of proteins named here, by UniProt entry; tags and fusion partners are left off. A change or cut given only in a name is not applied to a line headed by its entry.
UniProt O60603: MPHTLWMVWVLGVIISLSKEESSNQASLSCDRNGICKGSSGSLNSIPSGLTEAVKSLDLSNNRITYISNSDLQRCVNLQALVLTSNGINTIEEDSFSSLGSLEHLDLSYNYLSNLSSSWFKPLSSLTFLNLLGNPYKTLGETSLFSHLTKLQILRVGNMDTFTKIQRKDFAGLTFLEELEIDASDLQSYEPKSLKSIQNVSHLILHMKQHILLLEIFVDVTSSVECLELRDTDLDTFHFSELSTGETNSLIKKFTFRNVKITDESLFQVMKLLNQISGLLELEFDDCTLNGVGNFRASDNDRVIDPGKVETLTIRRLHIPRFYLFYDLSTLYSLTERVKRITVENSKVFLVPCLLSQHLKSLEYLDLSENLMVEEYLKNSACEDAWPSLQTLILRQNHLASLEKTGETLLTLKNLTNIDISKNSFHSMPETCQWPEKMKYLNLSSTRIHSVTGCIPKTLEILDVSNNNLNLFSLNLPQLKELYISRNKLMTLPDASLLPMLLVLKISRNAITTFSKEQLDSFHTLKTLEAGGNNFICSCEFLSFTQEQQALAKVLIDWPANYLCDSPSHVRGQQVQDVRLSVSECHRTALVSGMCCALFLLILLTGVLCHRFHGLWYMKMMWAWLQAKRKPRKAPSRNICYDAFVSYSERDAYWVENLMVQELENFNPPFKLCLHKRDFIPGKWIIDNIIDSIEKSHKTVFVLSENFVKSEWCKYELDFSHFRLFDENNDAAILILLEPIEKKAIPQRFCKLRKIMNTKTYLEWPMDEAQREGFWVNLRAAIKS

These are yes or no findings as the source states them, for the method shown. Some results given as binding are weak or reduced against the parent protein; the word gives no strength. For some assays here: Tags and fused reporters may be left off the sequences shown.

The target in assay [1] is T1, rmTLR2/Fc (recombinant murine TLR-2) (Mus musculus, UniProt Q9QUN7 25-587, limits assumed).
T1 construct: Recombinant Fc fusion used as SPR analyte, MW of 98 kDa printed; also called murine receptor
T1 sequence: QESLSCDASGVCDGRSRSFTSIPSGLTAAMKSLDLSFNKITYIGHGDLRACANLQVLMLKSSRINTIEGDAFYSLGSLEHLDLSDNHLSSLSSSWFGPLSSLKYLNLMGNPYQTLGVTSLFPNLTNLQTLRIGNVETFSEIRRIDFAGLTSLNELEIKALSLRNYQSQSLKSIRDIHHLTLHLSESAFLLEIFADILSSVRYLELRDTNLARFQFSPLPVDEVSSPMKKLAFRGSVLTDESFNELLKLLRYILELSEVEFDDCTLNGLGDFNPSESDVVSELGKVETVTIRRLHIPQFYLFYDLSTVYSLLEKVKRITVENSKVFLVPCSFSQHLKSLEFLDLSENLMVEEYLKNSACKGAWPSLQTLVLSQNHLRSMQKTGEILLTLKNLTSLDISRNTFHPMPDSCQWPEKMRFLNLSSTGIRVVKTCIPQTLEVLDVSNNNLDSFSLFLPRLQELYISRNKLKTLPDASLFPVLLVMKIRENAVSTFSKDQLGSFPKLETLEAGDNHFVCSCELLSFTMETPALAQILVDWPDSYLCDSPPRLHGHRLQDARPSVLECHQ
The assay can be described thus: SPR, Biacore T100. (In general: In SPR one partner is held on a chip, and binding of the other changes the refractive index at the surface.)

Assay [2] deals with T2, rhTLR-2 (recombinant human TLR-2) (human, UniProt O60603 21-588, limits assumed).
T2 construct: Soluble recombinant protein reconstituted from dry powder, used as SPR analyte; also called glycosylated human receptor analyte
The assay can be described thus: SPR, Biacore T100.

B1: OPN-305 fully humanised anti-Toll-like Receptor 2 monoclonal antibody (antibody, human IgG4 S228P, kappa, V domains shown)
VH: QVQLVQSGSELKKPGASVKLSCKASGFTFTTYGINWVRQAPGQGLEWIGWIYPRDGSTNFNENFKDRATITVDTSASTAYMELSSLRSEDTAVYFCARLTGGTFLDYWGQGTTVTVSS
VL: DIVLTQSPATLSLSPGERATLSCRASESVEYYGTSLMQWYQQKPGQPPKLLIFGASNVESGVPDRFSGSGSGTDFTLKISRVEAEDVGMYFCQQSRKLPWTFGGGTKVEIKR
notes: made in NS0 cells; also called variant 21
For B1, the binding result in assay [1] and in assay [2] was “binds” each time.
